Source: publication PMC9425028
No constants are given. Whether binding was seen depends on the method and setting. A result given as binding can be weak or reduced; the word gives no strength.

Protein sequences, listed by entry. Tags and fused reporters are not part of them. Lines headed by an entry give the natural chain unless they say otherwise; changes in a name come on top. Chains listed by the source or under a name are the forms on record and can include a tag or linker.
wild-type recombinant mouse MASP-3 with ALFA tag (WT rmMASP-3-ALFA) (P98064-2, form named): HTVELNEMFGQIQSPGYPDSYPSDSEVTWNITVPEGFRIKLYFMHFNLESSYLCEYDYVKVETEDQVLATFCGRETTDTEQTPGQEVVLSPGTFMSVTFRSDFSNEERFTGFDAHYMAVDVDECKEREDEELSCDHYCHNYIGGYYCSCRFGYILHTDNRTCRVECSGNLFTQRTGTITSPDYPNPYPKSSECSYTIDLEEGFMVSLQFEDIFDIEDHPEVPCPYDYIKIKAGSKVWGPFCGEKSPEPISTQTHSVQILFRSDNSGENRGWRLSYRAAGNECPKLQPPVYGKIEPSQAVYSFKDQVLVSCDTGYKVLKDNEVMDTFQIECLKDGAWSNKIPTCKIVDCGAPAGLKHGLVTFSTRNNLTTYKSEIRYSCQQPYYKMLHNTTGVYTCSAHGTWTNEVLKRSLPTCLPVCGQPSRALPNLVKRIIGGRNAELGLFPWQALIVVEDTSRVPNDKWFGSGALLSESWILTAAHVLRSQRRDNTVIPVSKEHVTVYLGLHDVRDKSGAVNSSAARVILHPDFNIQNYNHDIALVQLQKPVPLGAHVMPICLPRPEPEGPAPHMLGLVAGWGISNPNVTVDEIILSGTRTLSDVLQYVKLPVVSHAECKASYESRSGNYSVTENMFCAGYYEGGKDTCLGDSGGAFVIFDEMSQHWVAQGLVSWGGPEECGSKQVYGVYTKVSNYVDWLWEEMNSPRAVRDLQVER

Molecular target: D102A mutant recombinant mouse MASP-3 fused with PA-tag (mouse) (UniProt P98064)
Test: ELISA; sandwich ELISA: 10 ug each of rmMASP-3-PA and rmMASP-3-ALFA mixed, dialysed against TBS/10 mM EDTA 24 h at 4°C, then against TBS/5 mM CaCl2 24 h at 4°C; 0.14 uM of each, serially diluted in 20% Blocking One in TBS/Ca; captured on anti-PA tag antibody, 30 min room temperature; detected with HRP-conjugated anti-ALFA nanobody; both purified

Substance: wild-type recombinant mouse MASP-3 with ALFA tag (WT rmMASP-3-ALFA) (from UniProt P98064-2 25-733) (enzyme)
- binding: binds
